What all share (test): protein microarray (ProtoArray v5.0), streptavidin-Alexa Fluor 647
Conditions in all cases: 3'-biotin; 20 mM Tris (pH 7.5), 5 mM MgCl2, 100 mM KCl, 0.1% Tween-20, A/T-rich and random oligonucleotide blockers; temperature not stated; high values mean tight binding

By UniProt entry, the sequences of proteins in these tests, tags left out.
UniProt P05067, whole entry: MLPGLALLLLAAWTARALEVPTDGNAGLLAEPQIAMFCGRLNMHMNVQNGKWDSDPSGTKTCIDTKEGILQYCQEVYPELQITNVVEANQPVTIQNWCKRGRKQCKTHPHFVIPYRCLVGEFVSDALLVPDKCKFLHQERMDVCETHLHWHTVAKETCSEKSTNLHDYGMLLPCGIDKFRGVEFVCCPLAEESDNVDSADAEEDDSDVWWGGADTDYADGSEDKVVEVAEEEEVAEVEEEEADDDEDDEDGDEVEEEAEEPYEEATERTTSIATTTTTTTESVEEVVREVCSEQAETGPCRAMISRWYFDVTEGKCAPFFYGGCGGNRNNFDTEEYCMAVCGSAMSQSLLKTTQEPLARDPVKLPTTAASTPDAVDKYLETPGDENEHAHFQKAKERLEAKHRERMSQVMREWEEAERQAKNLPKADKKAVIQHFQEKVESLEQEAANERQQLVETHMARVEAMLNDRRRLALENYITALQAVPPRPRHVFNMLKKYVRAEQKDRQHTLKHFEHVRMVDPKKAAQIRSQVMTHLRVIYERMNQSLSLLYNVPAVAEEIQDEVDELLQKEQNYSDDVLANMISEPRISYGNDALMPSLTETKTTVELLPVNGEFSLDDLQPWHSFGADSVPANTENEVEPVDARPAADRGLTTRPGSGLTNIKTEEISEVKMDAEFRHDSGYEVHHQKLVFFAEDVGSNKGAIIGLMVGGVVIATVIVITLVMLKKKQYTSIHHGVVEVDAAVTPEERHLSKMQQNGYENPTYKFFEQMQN

For assay [1], the system named is APOM (human).
Assay [2] addresses APP (UniProt P05067).
In assay [3] the test system is APPL2 (human).
Assay [4] deals with AQP5 (human).
For assay [5], the target named is T1, AQP8 (UniProt O94778).
T1 sequence: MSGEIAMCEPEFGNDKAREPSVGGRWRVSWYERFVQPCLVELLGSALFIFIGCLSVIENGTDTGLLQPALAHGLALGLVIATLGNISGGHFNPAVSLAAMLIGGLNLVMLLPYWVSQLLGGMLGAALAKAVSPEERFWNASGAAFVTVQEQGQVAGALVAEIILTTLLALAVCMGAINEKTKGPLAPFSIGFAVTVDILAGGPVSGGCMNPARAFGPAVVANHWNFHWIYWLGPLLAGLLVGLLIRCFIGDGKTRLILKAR

Assay [6] relates to ARF4 (human).
The subject of assay [7] is ARF5 (human).
Assay [8] deals with ARFIP2 (human).
For assay [9], the system named is ARHGAP24 (human).
The subject of assay [10] is ARHGAP28 (human).

Our source for the binding signal values is publication PMC5996148.

The list shows a part of the results. For some of these results: The exact form of the protein is not confirmed.

Take “GGGAGGCTGAGGCAGG [G4-1 biotinylated (PQS2)]”: the binding signal in assay [1] was -0.316 z-score; in [2], -0.327 z-score; in [3] it was -0.307 z-score; in assay [4] it was -0.347 z-score; in assay [5], -0.35 z-score; in [6], -0.344 z-score. Besides, the binding signal in [7] was -0.345 z-score; in [8], -0.358 z-score; in assay [9] it was -0.281 z-score; in [10] it was -0.326 z-score.
